Laboratory results: paper PMC6704577

Sequences of proteins named here, by UniProt entry; tags and fusion partners are left off. A change or cut given only in a name is not applied to a line headed by its entry.
UniProt O43736: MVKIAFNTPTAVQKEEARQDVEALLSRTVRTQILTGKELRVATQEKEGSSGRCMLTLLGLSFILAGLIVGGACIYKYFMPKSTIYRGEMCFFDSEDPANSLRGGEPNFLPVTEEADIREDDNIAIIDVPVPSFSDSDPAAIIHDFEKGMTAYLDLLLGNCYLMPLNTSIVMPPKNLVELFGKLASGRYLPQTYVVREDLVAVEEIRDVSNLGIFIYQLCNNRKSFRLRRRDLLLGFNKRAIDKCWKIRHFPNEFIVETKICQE

Molecular target: GST-ITM2A (integral membrane protein 2A fused to GST) (UniProt O43736)
Test: affinity purification with mass spectrometry; GST pull-down with the fused protein GST-ITM2A as bait; Coomassie-stained 70 kDa-100 kDa band analysed, peptide identified; source of the prey lysate not stated; only the target purified

B1: Up-regulated Neu-associated Kinase (HUNK), found in the GST-ITM2A precipitate (protein, UniProt P57058 1-714)
chain: MPAAAGDGLLGEPAAPGGGGGAEDAARPAAACEGSFLPAWVSGVPRERLRDFQHHKRVGNYLIGSRKLGEGSFAKVREGLHVLTGEKVAIKVIDKKRAKKDTYVTKNLRREGQIQQMIRHPNITQLLDILETENSYYLVMELCPGGNLMHKIYEKKRLEESEARRYIRQLISAVEHLHRAGVVHRDLKIENLLLDEDNNIKLIDFGLSNCAGILGYSDPFSTQCGSPAYAAPELLARKKYGPKIDVWSIGVNMYAMLTGTLPFTVEPFSLRALYQKMVDKEMNPLPTQLSTGAISFLRSLLEPDPVKRPNIQQALANRWLNENYTGKVPCNVTYPNRISLEDLSPSVVLHMTEKLGYKNSDVINTVLSNRACHILAIYFLLNKKLERYLSGKSDIQDSLCYKTRLYQIEKYRAPKESYEASLDTWTRDLEFHAVQDKKPKEQEKRGDFLHRPFSKKLDKNLPSHKQPSGSLMTQIQNTKALLKDRKASKSSFPDKDSFGCRNIFRKTSDSNCVASSSMEFIPVPPPRTPRIVKKPEPHQPGPGSTGIPHKEDPLMLDMVRSFESVDRDDHVEVLSPSHHYRILNSPVSLARRNSSERTLSPGLPSGSMSPLHTPLHPTLVSFAHEDKNSPPKEEGLCCPPPVPSNGPMQPLGSPNCVKSRGRFPMMGIGQMLRKRHQSLQPSADRPLEASLPPLQPLAPVNLAFDMADGVKTQC
binding: binds

Results are given in words; binding and its absence hold for the method and conditions named. Binding seen in cells or lysates may run through a third protein. Here binding means that the protein was enriched with, or labelled near, the bait; the list need not be complete. Where a sequence is shown, tags or fusion partners need not be part of it.
